Source: US8895587B2, “Insecticidal compounds based on arylthioacetamide derivatives” (Syngenta Participations AG, priority 2011, dated 2014)
Some entries share one result that the patent states for a list of compounds.

Test system: Plutella xylostella
Assay: Plutella xylostella (diamond back moth) larval test on artificial diet
Format: in vivo
Conditions: application rate 200 ppm (concentration in well 18 ppm); L2 larvae on artificial diet; 6 days
Method: 24-well microtiter plate (MTP) with artificial diet was treated with test solutions at an application rate of 200 ppm (concentration in well 18 ppm) by pipetting. After drying, the MTP's were infested with L2 larvae (7-12 per well). After an incubation period of 6 days, samples were checked for larval mortality and growth regulation.

Row | SMILES | control of Plutella xylostella
1 | CCCCNC(=O)CSc1ccc(C2=NOC(c3cc(Cl)cc(Cl)c3)(C(F)(F)F)C2)cc1Cl (stereo not shown) [Compound A2] | at least 80%
2 | C=C(C)CNC(=O)CSc1ccc(C2=NOC(c3cc(Cl)cc(Cl)c3)(C(F)(F)F)C2)cc1C (stereo not shown) [Compound C86] | at least 80%
3 | COc1ccc(CNC(=O)CSc2ccc(C3=NOC(c4cc(Cl)cc(Cl)c4)(C(F)(F)F)C3)cc2Cl)cc1 (stereo not shown) [Compound A12] | at least 80%
4 | C#CC(C)(C)NC(=O)CSc1ccc(C2=NOC(c3cc(Cl)cc(Cl)c3)(C(F)(F)F)C2)cc1Cl (stereo not shown) [Compound C98] | at least 80%
5 | Cc1cc(C2=NO[C@@](c3cc(Cl)cc(Cl)c3)(C(F)(F)F)C2)ccc1S(=O)(=O)CC(=O)NCC(F)(F)F [Compound C3, 2-{4-(S)-[5-(3,5-Dichloro-phenyl)-5-trifluoromethyl-4,5-dihydro-isoxazol-3-yl]-2-methyl-benzenesulfonyl}-N-(2,2,2-trifluoro-ethyl)-acetamide] | at least 80%
6 | CNC(=O)CSc1ccc(C2=NOC(c3cc(Cl)cc(Cl)c3)(C(F)(F)F)C2)cc1Cl (stereo not shown) [Compound C96] | at least 80%
7 | O=C(CSc1ccc(C2=NOC(c3cc(Cl)cc(Cl)c3)(C(F)(F)F)C2)cc1Cl)NC1CSC1 (stereo not shown) [Compound A22] | at least 80%
8 | CC#CCNC(=O)CSc1ccc(C2=NOC(c3cc(Cl)cc(Cl)c3)(C(F)(F)F)C2)cc1C (stereo not shown) [Compound C101] | at least 80%
9 | O=C(C[S+]([O-])c1ccc(C2=NOC(c3cc(Cl)cc(Cl)c3)(C(F)(F)F)C2)cc1Cl)NCC(F)(F)F (stereo not shown) [Compound A54] | at least 80%
10 | COCCNC(=O)CSc1ccc(C2=NO[C@@](c3cc(Cl)cc(Cl)c3)(C(F)(F)F)C2)cc1Cl [Compound C14] | at least 80%
11 | Cc1cc(C2=NOC(c3cc(Cl)cc(Cl)c3)(C(F)(F)F)C2)ccc1SCC(=O)NCC1CC1 (stereo not shown) [Compound C95] | at least 80%
12 | C#CCNC(=O)CS(=O)(=O)c1ccc(C2=NOC(c3cc(Cl)cc(Cl)c3)(C(F)(F)F)C2)cc1Cl (stereo not shown) [Compound C65] | at least 80%
13 | Cc1cc(NC(=O)CSc2ccc(C3=NOC(c4cc(Cl)cc(Cl)c4)(C(F)(F)F)C3)cc2Cl)n(C)n1 (stereo not shown) [Compound A17] | at least 80%
14 | O=C(CSc1ccc(C2=NOC(c3cc(Cl)cc(Cl)c3)(C(F)(F)F)C2)cc1[N+](=O)[O-])NCC(F)(F)F (stereo not shown) [Compound A57] | at least 80%
15 | O=C(CSc1ccc(C2=NOC(c3cc(Cl)cc(Cl)c3)(C(F)(F)F)C2)cc1Cl)NCC=CCl (stereo not shown) [Compound C75] | at least 80%
16 | CCCNC(=O)CSc1ccc(C2=NOC(c3cc(Cl)cc(Cl)c3)(C(F)(F)F)C2)cc1C (stereo not shown) [Compound C104] | at least 80%
17 | O=C(CSc1ccc(C2=NOC(c3cc(Cl)cc(Cl)c3)(C(F)(F)F)C2)cc1Cl)Nc1nc[nH]n1 (stereo not shown) [Compound C47] | at least 80%
18 | O=C(CS(=O)(=O)c1ccc(C2=NOC(c3cc(Cl)cc(Cl)c3)(C(F)(F)F)C2)cc1Cl)NCC(F)(F)F (stereo not shown) [Compound A55] | at least 80%
19 | O=C(CSc1ccc(C2=NOC(c3cc(Cl)cc(Cl)c3)(C(F)(F)F)C2)cc1Br)NCCC(F)(F)F (stereo not shown) [Compound A30] | at least 80%
20 | O=C(CSc1ccc(C2=NOC(c3cc(Cl)cc(Cl)c3)(C(F)(F)F)C2)cc1Br)NC1C[S+]([O-])C1 (stereo not shown) [Compound A45] | at least 80%

Row | SMILES | control of Plutella xylostella
21 | CC(CF)NC(=O)CSc1ccc(C2=NOC(c3cc(Cl)cc(Cl)c3)(C(F)(F)F)C2)cc1Cl (stereo not shown) [Compound C77] | at least 80%
22 | CC(Cc1ccccc1)NC(=O)CSc1ccc(C2=NOC(c3cc(Cl)cc(Cl)c3)(C(F)(F)F)C2)cc1Br (stereo not shown) [Compound A63] | at least 80%
23 | CCNC(=O)CSc1ccc(C2=NOC(c3cc(Cl)cc(Cl)c3)(C(F)(F)F)C2)cc1Cl (stereo not shown) [Compound A1] | at least 80%
24 | O=C(CSc1ccc(C2=NOC(c3cc(Cl)cc(Cl)c3)(C(F)(F)F)C2)cc1Br)NC/C=C/Cl (stereo not shown) [Compound A81] | at least 80%
25 | C#CCNC(=O)CSc1ccc(C2=NOC(c3cc(Cl)cc(Cl)c3)(C(F)(F)F)C2)cc1Br (stereo not shown) [Compound A88] | at least 80%
26 | C#CCNC(=O)CSc1ccc(C2=NOC(c3cc(Cl)cc(Cl)c3)(C(F)(F)F)C2)cc1C (stereo not shown) [Compound C92] | at least 80%
27 | O=C(CSc1ccc(C2=NOC(c3cc(Cl)cc(Cl)c3)(C(F)(F)F)C2)cc1Br)NCC1CC1 (stereo not shown) [Compound A91] | at least 80%
28 | O=C(CSc1ccc(C2=NOC(c3cc(Cl)cc(Cl)c3)(C(F)(F)F)C2)cc1Cl)NCc1ccccn1 (stereo not shown) [Compound A16] | at least 80%
29 | Cc1cc(C2=NOC(c3cc(Cl)cc(Cl)c3)(C(F)(F)F)C2)ccc1SCC(=O)NC(C)C#N (stereo not shown) [Compound C85] | at least 80%
30 | O=C(CSc1ccc(C2=NOC(c3cc(Cl)cc(Cl)c3)(C(F)(F)F)C2)cc1Cl)NC1CS(=O)(=O)C1 (stereo not shown) [Compound A13] | at least 80%
31 | Cc1cc(C2=NOC(c3cc(Cl)cc(Cl)c3)(C(F)(F)F)C2)ccc1SCC(=O)NCC(C)F (stereo not shown) [Compound C103] | at least 80%
32 | O=C(CSc1ccc(C2=NO[C@@](c3cc(Cl)cc(Cl)c3)(C(F)(F)F)C2)cc1Cl)Nc1ccccc1Cl [Compound C12] | at least 80%
33 | O=C(CNC(=O)CSc1ccc(C2=NOC(c3cc(Cl)cc(Cl)c3)(C(F)(F)F)C2)cc1Br)NCC(F)(F)F (stereo not shown) [Compound A28] | at least 80%
34 | O=C(CSc1ccc(C2=NOC(c3cc(Cl)cc(Cl)c3)(C(F)(F)F)C2)cc1Br)NCCF (stereo not shown) [Compound A78] | at least 80%
35 | CCC(C)CNC(=O)CSc1ccc(C2=NOC(c3cc(Cl)cc(Cl)c3)(C(F)(F)F)C2)cc1Cl (stereo not shown) [Compound C66] | at least 80%
36 | O=C(C[S+]([O-])c1ccc(C2=NO[C@@](c3cc(Cl)cc(Cl)c3)(C(F)(F)F)C2)cc1Cl)NCC(F)(F)F (stereo partly drawn) [Compound C5, 2-{4-(S)-[5-(3,5-dichloro-phenyl)-5-trifluoromethyl-4,5-dihydro-isoxazol-3-yl]-2-chloro-benzenesulfinyl}-N-(2,2,2-trifluoro-ethyl)-acetamide] | at least 80%
37 | CCCCNC(=O)CSc1ccc(C2=NOC(c3cc(Cl)cc(Cl)c3)(C(F)(F)F)C2)cc1Br (stereo not shown) [Compound A26] | at least 80%
38 | O=C(CSc1ccc(C2=NOC(c3cc(Cl)cc(Cl)c3)(C(F)(F)F)C2)cc1Br)NCN1CCCC1=O (stereo not shown) [Compound A67] | at least 80%
39 | C#CC(C)(C)NC(=O)CSc1ccc(C2=NOC(c3cc(Cl)cc(Cl)c3)(C(F)(F)F)C2)cc1C (stereo not shown) [Compound C81] | at least 80%
40 | C=CCNC(=O)CSc1ccc(C2=NOC(c3cc(Cl)cc(Cl)c3)(C(F)(F)F)C2)cc1Br (stereo not shown) [Compound A90] | at least 80%

Row | SMILES | control of Plutella xylostella
41 | O=C(CSc1ccc(C2=NOC(c3cc(Cl)cc(Cl)c3)(C(F)(F)F)C2)cc1Cl)NC1CC2CCC1C2 (stereo not shown) [Compound A23] | at least 80%
42 | CC(C)CNC(=O)CSc1ccc(C2=NOC(c3cc(Cl)cc(Cl)c3)(C(F)(F)F)C2)cc1Cl (stereo not shown) [Compound C54] | at least 80%
43 | Cc1cc(C2=NOC(c3cc(Cl)cc(Cl)c3)(C(F)(F)F)C2)cc(C)c1SCC(=O)NCC(F)(F)F (stereo not shown) [Compound E1] | at least 80%
44 | Cc1cc(C2=NOC(c3cc(Cl)cc(Cl)c3)(C(F)(F)F)C2)ccc1SCC(=O)NCC=CCl (stereo not shown) [Compound C100] | at least 80%
45 | CC#CCNC(=O)CSc1ccc(C2=NOC(c3cc(Cl)cc(Cl)c3)(C(F)(F)F)C2)cc1Br (stereo not shown) [Compound A82] | at least 80%
46 | CNC(=O)CSc1ccc(C2=NOC(c3cc(Cl)cc(Cl)c3)(C(F)(F)F)C2)cc1Br (stereo not shown) [Compound A69] | at least 80%
47 | COc1ccc(CNC(=O)CSc2ccc(C3=NOC(c4cc(Cl)cc(Cl)c4)(C(F)(F)F)C3)cc2Br)cc1 (stereo not shown) [Compound A36] | at least 80%
48 | CC(C)NC(=O)CSc1ccc(C2=NOC(c3cc(Cl)cc(Cl)c3)(C(F)(F)F)C2)cc1Cl (stereo not shown) [Compound C59] | at least 80%
49 | CCC(C)NC(=O)CSc1ccc(C2=NOC(c3cc(Cl)cc(Cl)c3)(C(F)(F)F)C2)cc1Br (stereo not shown) [Compound A31] | at least 80%
50 | O=C(CSc1ccc(C2=NOC(c3cc(Cl)cc(Cl)c3)(C(F)(F)F)C2)cc1Cl)NCC(F)F (stereo not shown) [Compound C53] | at least 80%
51 | Cc1cc(C2=NOC(c3cc(Cl)cc(Cl)c3)(C(F)(F)F)C2)ccc1SCC(=O)NCCF (stereo not shown) [Compound C88] | at least 80%
52 | CC(C#N)NC(=O)CSc1ccc(C2=NOC(c3cc(Cl)cc(Cl)c3)(C(F)(F)F)C2)cc1Cl (stereo not shown) [Compound C69] | at least 80%
53 | O=C(CSc1ccc(C2=NOC(c3cc(Cl)cc(Cl)c3)(C(F)(F)F)C2)cc1Cl)NC1C[S+]([O-])C1 (stereo not shown) [Compound A21] | at least 80%
54 | O=C(CSc1ccc(C2=NOC(c3cc(Cl)cc(Cl)c3)(C(F)(F)F)C2)cc1Br)NCC1CCCO1 (stereo not shown) [Compound A32] | at least 80%
55 | C=CCNC(=O)CSc1ccc(C2=NO[C@@](c3cc(Cl)cc(Cl)c3)(C(F)(F)F)C2)cc1Cl [Compound C11] | at least 80%
56 | CC(F)CNC(=O)CSc1ccc(C2=NO[C@@](c3cc(Cl)cc(Cl)c3)(C(F)(F)F)C2)cc1Cl (stereo partly shown) [Compound C78] | at least 80%
57 | Cc1cc(C2=NOC(c3cc(Cl)cc(Cl)c3)(C(F)(F)F)C2)ccc1SCC(=O)NC1CC1 (stereo not shown) [Compound C83] | at least 80%
58 | CC(F)CNC(=O)CSc1ccc(C2=NOC(c3cc(Cl)cc(Cl)c3)(C(F)(F)F)C2)cc1Br (stereo not shown) [Compound A84] | at least 80%
